# Results as given in article PMC5996148.
# The chains behind the UniProt entries cited, without tags or fusion partners. Where a name states a change or a piece, a line headed by the entry shows the natural chain unless it says otherwise.
# UniProt Q9NPU4: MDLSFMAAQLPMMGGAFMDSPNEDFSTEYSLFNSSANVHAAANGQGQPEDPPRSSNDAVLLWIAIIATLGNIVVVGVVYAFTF
# Values joined by “and” are separate entries in the source; they are usually repeats but may differ in a detail not shown here. Equal entries are not always repeated. Some of the results follow. For some assays here: The source does not settle which construct or isoform was used.
# Legend:
# Assay in all cases: protein microarray (ProtoArray v5.0), streptavidin-Alexa Fluor 647
# Conditions in all cases: 3'-biotin; 20 mM Tris (pH 7.5), 5 mM MgCl2, 100 mM KCl, 0.1% Tween-20, A/T-rich and random oligonucleotide blockers; temperature not stated; high values mean tight binding
# C13orf3 (human) = system: C13orf3 (human)
# C14orf100 (human) = system: C14orf100 (human)
# C14orf119 (human) = system: C14orf119 (human)
# C14orf122 (human) = system: C14orf122 (human)
# C14orf124 (human) = system: C14orf124 (human)
# C14orf130 (human) = system: C14orf130 (human)
# C14orf131 (human) = system: C14orf131 (human)
# C14orf132 = C14orf132 (UniProt Q9NPU4)
# C14orf147 (human) = system: C14orf147 (human)
# C14orf149 (human) = system: C14orf149 (human)
# C14orf159 (human) = system: C14orf159 (human)
# C14orf24 (human) = system: C14orf24 (human)
# C14orf32 (human) = system: C14orf32 (human)
# C14orf45 (human) = system: C14orf45 (human)
# C15orf26 (human) = system: C15orf26 (human)
# C15orf38 (human) = system: C15orf38 (human)
# C15orf41 (human) = system: C15orf41 (human)
# C15orf43 (human) = system: C15orf43 (human)
# C15orf44 (human) = system: C15orf44 (human)
# C16orf13 (human) = system: C16orf13 (human)
sequence,measurement,setting,value
GGGAGGCTGAGGCAGG [G4-1 biotinylated (PQS2)],binding signal,C13orf3 (human),-0.327 z-score
same,binding signal,C14orf100 (human),-0.348 z-score
same,binding signal,C14orf119 (human),-0.374 z-score
same,binding signal,C14orf122 (human),-0.353 z-score
same,binding signal,C14orf124 (human),-0.315 z-score
same,binding signal,C14orf130 (human),-0.352 z-score
same,binding signal,C14orf131 (human),-0.316 z-score and -0.374 z-score
same,binding signal,C14orf132,-0.305 z-score
same,binding signal,C14orf147 (human),-0.325 z-score
same,binding signal,C14orf149 (human),-0.319 z-score
same,binding signal,C14orf159 (human),-0.321 z-score
same,binding signal,C14orf24 (human),-0.337 z-score
same,binding signal,C14orf32 (human),-0.328 z-score
same,binding signal,C14orf45 (human),-0.344 z-score
same,binding signal,C15orf26 (human),-0.332 z-score
same,binding signal,C15orf38 (human),-0.341 z-score
same,binding signal,C15orf41 (human),-0.343 z-score
same,binding signal,C15orf43 (human),-0.312 z-score
same,binding signal,C15orf44 (human),-0.309 z-score
same,binding signal,C16orf13 (human),-0.339 z-score

# 2 entries from above, set out differently.
sequence | measurement | setting | value
GGGAGGCTGAGGCAGG [G4-1 biotinylated (PQS2)] | binding signal | C15orf43 (human) | -0.312 z-score
same | binding signal | C16orf13 (human) | -0.339 z-score
